From publication PMC7497631, “Role of Membrane Tension Sensitive Endocytosis and Rho GTPases in the Uptake of the Alzheimer’s Disease Peptide Aβ(1-42)” (ACS Chemical Neuroscience, 2020)

Tested on: HeLa Flp-In T-REx cells
Experiment: Confocal microscopy of colocalization with GFP-GRAF1 structures in cells expressing Cdc42 Q61L
Assay type: cell-based, human

Aβ(1-42): Synthetic Aβ(1-42) peptide, conjugated to the HiLyte Fluor HF488 or HF647 at the N-terminus, from Anaspec; applied in highly monomeric form
colocalization with GRAF1, shorter incubation pulse (GFP-GRAF1, mCherry-Cdc42 Q61L, 5 μM HF647-labeled Aβ(1-42), 15 min, confocal microscopy): did not observe colocalization | comovement of GRAF1- and peptide-containing vesicles (GFP-GRAF1, mCherry-Cdc42 Q61L, 15 min pulse of 5 μM Aβ(1-42), time-lapse confocal microscopy): No apparent comovement | colocalization of peptide-containing endosomal vesicles with GRAF1 (GFP-GRAF1 induced, mCherry-Cdc42 Q61L, 1 μM HF647-labeled Aβ(1-42), 40 min, confocal microscopy): did not colocalize
